Laboratory results: article doi:10.1101/2024.05.31.596839
These are yes or no findings as the source states them, for the method shown. For part of these data: Where a sequence is shown, tags or fusion partners need not be part of it.

T1: Vreteno (Drosophila) (UniProt Q9VCU7)
T1 sequence: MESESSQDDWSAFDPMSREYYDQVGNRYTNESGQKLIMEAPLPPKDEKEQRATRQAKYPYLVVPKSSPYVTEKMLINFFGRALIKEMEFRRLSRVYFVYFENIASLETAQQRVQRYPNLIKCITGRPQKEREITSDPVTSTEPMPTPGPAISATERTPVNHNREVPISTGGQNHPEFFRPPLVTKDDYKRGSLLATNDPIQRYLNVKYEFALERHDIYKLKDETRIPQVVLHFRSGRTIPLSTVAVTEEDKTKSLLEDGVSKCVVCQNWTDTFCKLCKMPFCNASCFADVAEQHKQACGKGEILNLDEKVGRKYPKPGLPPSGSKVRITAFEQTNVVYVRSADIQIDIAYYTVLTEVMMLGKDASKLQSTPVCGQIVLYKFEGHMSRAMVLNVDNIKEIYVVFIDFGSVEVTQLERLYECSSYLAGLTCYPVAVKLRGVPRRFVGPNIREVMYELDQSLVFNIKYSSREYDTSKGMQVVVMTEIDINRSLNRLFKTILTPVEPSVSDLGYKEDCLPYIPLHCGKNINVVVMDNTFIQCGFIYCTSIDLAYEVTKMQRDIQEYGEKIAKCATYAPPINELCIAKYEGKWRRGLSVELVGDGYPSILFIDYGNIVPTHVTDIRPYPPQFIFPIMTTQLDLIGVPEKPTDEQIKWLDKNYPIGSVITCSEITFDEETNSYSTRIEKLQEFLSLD

T2: Aubergine (Drosophila), O76922
T2 chain: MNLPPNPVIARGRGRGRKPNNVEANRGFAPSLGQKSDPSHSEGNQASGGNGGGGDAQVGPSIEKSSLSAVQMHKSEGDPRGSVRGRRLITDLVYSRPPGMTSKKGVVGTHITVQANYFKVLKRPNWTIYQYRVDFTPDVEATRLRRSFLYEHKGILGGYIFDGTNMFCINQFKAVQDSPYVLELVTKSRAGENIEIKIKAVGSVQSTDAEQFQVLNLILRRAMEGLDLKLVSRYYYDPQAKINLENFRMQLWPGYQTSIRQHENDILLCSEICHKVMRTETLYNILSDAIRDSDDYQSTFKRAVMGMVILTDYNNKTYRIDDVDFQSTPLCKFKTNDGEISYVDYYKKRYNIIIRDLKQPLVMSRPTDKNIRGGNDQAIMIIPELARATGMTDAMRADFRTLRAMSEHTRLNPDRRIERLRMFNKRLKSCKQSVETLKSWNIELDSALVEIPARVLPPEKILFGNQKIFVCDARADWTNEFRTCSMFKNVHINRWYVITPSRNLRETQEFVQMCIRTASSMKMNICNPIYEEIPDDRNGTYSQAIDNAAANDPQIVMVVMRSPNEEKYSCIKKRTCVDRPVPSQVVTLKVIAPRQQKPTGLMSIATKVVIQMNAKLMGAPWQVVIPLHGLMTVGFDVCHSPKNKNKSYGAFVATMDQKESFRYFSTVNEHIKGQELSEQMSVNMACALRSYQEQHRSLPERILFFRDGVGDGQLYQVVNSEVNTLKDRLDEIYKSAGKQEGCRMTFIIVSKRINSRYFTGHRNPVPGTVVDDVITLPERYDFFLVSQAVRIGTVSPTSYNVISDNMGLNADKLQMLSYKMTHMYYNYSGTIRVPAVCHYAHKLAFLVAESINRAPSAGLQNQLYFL

T3: Spindle E (Drosophila), Q9VF26
T3 chain: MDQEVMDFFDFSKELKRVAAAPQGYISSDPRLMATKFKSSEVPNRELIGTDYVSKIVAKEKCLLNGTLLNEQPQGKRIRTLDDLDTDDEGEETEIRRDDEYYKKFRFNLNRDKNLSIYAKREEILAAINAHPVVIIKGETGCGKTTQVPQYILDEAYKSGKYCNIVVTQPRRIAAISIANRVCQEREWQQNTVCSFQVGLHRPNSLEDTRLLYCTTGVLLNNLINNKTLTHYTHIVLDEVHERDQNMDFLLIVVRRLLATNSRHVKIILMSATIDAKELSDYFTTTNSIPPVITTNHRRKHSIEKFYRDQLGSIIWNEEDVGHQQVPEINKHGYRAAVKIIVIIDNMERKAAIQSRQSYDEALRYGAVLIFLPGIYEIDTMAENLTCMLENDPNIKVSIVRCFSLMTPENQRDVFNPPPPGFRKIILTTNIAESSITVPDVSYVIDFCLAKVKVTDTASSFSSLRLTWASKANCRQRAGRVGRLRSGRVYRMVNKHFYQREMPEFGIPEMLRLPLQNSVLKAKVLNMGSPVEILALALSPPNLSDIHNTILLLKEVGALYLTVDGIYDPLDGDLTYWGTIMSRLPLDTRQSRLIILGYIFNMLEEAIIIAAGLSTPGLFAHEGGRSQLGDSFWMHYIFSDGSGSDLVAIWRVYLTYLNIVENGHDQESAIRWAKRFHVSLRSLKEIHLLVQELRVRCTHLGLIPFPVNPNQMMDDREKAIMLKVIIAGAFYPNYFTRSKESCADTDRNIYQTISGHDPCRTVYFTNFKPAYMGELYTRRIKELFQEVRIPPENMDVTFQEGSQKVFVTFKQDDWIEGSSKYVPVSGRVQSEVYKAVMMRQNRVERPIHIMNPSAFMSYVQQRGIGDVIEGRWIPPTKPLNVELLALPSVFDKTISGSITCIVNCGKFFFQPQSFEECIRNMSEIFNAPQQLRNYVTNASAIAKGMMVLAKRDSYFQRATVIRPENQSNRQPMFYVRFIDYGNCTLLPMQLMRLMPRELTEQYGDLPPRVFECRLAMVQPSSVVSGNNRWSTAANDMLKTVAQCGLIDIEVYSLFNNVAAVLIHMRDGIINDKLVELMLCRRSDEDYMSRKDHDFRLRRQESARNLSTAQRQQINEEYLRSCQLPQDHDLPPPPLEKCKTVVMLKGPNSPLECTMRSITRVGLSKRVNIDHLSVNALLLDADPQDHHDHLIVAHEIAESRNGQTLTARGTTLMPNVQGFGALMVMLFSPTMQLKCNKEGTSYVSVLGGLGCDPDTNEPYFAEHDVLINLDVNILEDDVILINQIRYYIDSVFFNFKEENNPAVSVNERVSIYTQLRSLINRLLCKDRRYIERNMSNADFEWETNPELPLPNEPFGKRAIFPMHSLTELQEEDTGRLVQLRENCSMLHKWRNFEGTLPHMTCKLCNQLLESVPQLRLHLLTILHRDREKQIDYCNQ

B1: Armitage (protein, UniProt Q6J5K9 1-1188)
chain: MFTYVSKFFTNPDRNREDILESLDRENSFLDQKLMEEKMDQQLKANPNEINGVLSNKIAELTHGLSEMDVSKESSCTARKGVITSLDGDRGVIDKDVLFETKVAEDIILDLHVGCVVEYLTFTTGEAMRVVKVKSILEHSWEDTSQKEIEKAVDNLKNEKPTFFNTETRSVLGLISQRLASSIDVETEYGQLTVELDNIEMNFIPTNGDRVRLECNIQLDDGFVDKQGEILEVTKLFPTRIQEGEKCIVERVYVHMVVLGPETYILKTDLPTGTDLHLGDIVLADLIECQYSKFTRRAIKITPLEKNFGATKLTQQSSMGSSGSGKAVTVTGVNRFITAELWQKESVSLKLTNNLNRTLRLESITVCNDSESQLSVVSPLESKEISSGSEITVTFEIHTQFLGEAIEKYVLNFDLLKVRRVFTVIVCKTKEEVAEAEKRMIAAEALMAPGRNSQERSRFYANQVWCNKVDVIPGQQIVTKRRFVALRLGCFEVPKELRQICLTSERRQEMIKAIEQHYSFLTEPLSIKTYMHRFRLLLHLEEIECFVNFRNYDRDRAHFLRDGEFLTLQIENLAERRPSLVIGDTLRVINPWSDPDSQTTKSYEGIIHKVLFDRILLKFHSSFQEKYNGEDYRLEFYFSRYSFRKQHHAISKIVGVMGEDFLFPSKVTKRENPQLDVYMKDDDMYLYDSKLEWYNQSLNSIQKRAVFNILRGEAENIPYVLFGPPGSGKTMTLIETLLQLVRNLPGARILVGTPSNSSADLVTKRLIDSKALLQGDFIRLVSYNQVEKDLIPPEIMSYCATSDVGAVGSCEDKMMVTESGLKLRCQAKFIGTHRITISTCTTLGNFLQLGFPAGHFTHVLFDEAGQCTEPETMVPIVMLTKKRSQVVLSGDPRQLQSIVTSRIASKMGFSISFLERLLERSPYRKDLQRFPESSGYNPLVLTKLLYNYRALPSIMSIYSRLFYDDELIPVLSEKDSRESRLLSKLRCVFESEKDIPQAHGTFFYGIIGENRQNNDSPSWFNPQEVREVFLMTIALYRANVTADQIGIITPYQKQVKMLRSMFIGTDVVMPKIGSVEEFQGQERDIILISTVRSSEEILRMDARFSLGFVRCSKRLNVAVSRARAMMIIFGNPHLLAVDECWRQLILFCVKNNAYFGCDLPQMVINQKDEVPVCLETFVPSLNTTDDLN
B2: Vasa, P09052 1-661 (protein)
chain: MSDDWDDEPIVDTRGARGGDWSDDEDTAKSFSGEAEGDGVGGSGGEGGGYQGGNRDVFGRIGGGRGGGAGGYRGGNRDGGGFHGGRREGERDFRGGEGGFRGGQGGSRGGQGGSRGGQGGFRGGEGGFRGRLYENEDGDERRGRLDREERGGERRGRLDREERGGERGERGDGGFARRRRNEDDINNNNNIVEDVERKREFYIPPEPSNDAIEIFSSGIASGIHFSKYNNIPVKVTGSDVPQPIQHFTSADLRDIIIDNVNKSGYKIPTPIQKCSIPVISSGRDLMACAQTGSGKTAAFLLPILSKLLEDPHELELGRPQVVIVSPTRELAIQIFNEARKFAFESYLKIGIVYGGTSFRHQNECITRGCHVVIATPGRLLDFVDRTFITFEDTRFVVLDEADRMLDMGFSEDMRRIMTHVTMRPEHQTLMFSATFPEEIQRMAGEFLKNYVFVAIGIVGGACSDVKQTIYEVNKYAKRSKLIEILSEQADGTIVFVETKRGADFLASFLSEKEFPTTSIHGDRLQSQREQALRDFKNGSMKVLIATSVASRGLDIKNIKHVINYDMPSKIDDYVHRIGRTGRVGNNGRATSFFDPEKDRAIAADLVKILEGSGQTVPDFLRTCGAGGDGGYSNQNFGGVDVRGRGNYVGDATNVEEEEQWD

Key:
Assay in all cases: ReLo
[1] = target: T1, Vreteno (Drosophila)
[2] = target: T2, Aubergine (Drosophila), O76922; settings: remark: other sources report otherwise
[3] = target: T3, Spindle E (Drosophila), Q9VF26; settings: remark: other sources report otherwise

Binder	binding [1]	binding [2]	binding [3]
B1	no binding	–	–
B2	–	no binding	no binding
